Measured values reported in PubChem BioAssay AID1794845 (National Center for Advancing Translational Sciences (NCATS), 2023).
Fewer than 10 of roughly 6,900 compounds were called active. The call rests on the fitted dose curve; in most records, active means well fitted curve in the direction sought with a large enough effect; inconclusive means small, poorly fitted or top-dose-only effect, or another doubt; inactive means no such curve, though single readings can be large or run the other way. The list shows a part of the results.

Amino acid sequences for entries named in this document (tags omitted). A change or cut given only in a name is not applied to a line headed by its entry.
UniProt C7C422: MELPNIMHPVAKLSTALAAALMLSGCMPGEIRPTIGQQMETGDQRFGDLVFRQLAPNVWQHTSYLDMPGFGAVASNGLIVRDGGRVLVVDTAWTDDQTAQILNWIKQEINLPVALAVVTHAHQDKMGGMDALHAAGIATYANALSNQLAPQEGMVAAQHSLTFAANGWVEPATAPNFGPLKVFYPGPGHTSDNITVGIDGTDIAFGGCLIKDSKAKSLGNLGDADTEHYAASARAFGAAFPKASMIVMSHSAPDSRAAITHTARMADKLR

biological target: Metallo-beta-lactamase type 2 (Klebsiella pneumoniae) (UniProt C7C422); assay: qHTS to identify inhibitors of the New Delhi Metallo-beta-lactamase (NDM): primary screen against the NCATS Gemini Collection; conditions: NDM-1 enzyme, meropenem hydrolysis, absorbance 300 nm; at 38.4 µM (top of the series) unless noted; further: % of control where 0% means no effect
Outline: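 Meropenem hydrolysis (50 uM final) by 2 nM NDM-1 read as 300 nm absorbance after 30 min, following >30 min compound–enzyme preincubation in HEPES pH 7.0 with 1 uM ZnSO4 and 0.01% Tween20.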

Structure (SMILES) | activity % (negative = inhibition)
COc1cc(F)ccc1-c1nccc2c(=O)cc(-c3cnn(C)c3)oc12 | inactive: 5.26% [at 57.5 µM]
Cc1ccc(CNC(=O)Nc2cnc3c(c2)CCC3)cc1 | inactive: 6.86%
CN(C)C[C@@H]1CN(S(C)(=O)=O)C[C@H]1NC(=O)c1ccc(Cl)s1 | inactive: 6.59%
CC(C)N[C@@H]1CO[C@H](CNC(=O)c2ccccc2)[C@H]1O | inactive: -8.28% [at 77.1 µM]
CCCNC(=O)C1C(c2ccc(NC(=O)c3ccco3)cc2)OC(=O)N1Cc1ccccc1 (stereo unspecified) | inactive: 2.91%
CN1CCN([C@H]2[C@@H]3OC[C@@H](O3)[C@@H](NCc3ccc(-c4ccccc4)cc3)[C@@H]2O)CC1 | inactive: 0.426% [at 57.5 µM]
COc1ccc(-c2ccccc2C(=O)N2CCCC2)nn1 | inactive: 6.81% [at 57.5 µM]
O=C(O)C[C@@H]1CCN(C(=O)Nc2ccc(C(F)(F)F)cc2)C[C@@H]1CCN1C[C@@H]2C[C@H](C1)c1cccc(=O)n1C2 | inactive: 4.52%
Cc1cccc2c1O[C@H]1[C@H](CO)CN([S+](=O)([O-])c3cccs3)[C@@H]21 | inactive: 4.48%
CN(C(=O)CC(c1ccccc1)c1ccc(Cl)cc1)C1CCOCC1 (stereo unspecified) | inactive: -0.087%
O=C(NCCc1nccs1)c1cn(CCN2CCNCC2)nn1 | inactive: 1.04%
NC(=O)[C@@H](Cc1c[nH]c2ccccc12)NC(=O)[C@@H]1C[C@@H](NS(=O)(=O)c2cccs2)CCN1C(=O)[C@@H](O)[C@H](O)C(=O)O | inactive: 1.91%
CCc1csc(CNC(=O)c2ccc(N(C)Cc3cnn(C)c3)nc2)n1 | inactive: 12.2%
CCC1Oc2ccc(NS(=O)(=O)c3ccc(Cl)cc3)cc2CN(Cc2ccc(F)cc2)C1=O (stereo unspecified) | inactive: 10.7%
CCNc1ncnc2sc3c(c12)CCN(C(=O)COC)C3 | inactive: 10.2%
CC[C@H]1CN(C(C)=O)CC[C@H]1CC(=O)Nc1ccccc1 | inactive: -5.07% [at 77.1 µM]
COc1ccc(-c2cc(-c3ccncc3)cn3cncc23)cc1 | inactive: 2.77% [at 57.5 µM]
O=C([C@@H]1C[C@H](F)CN1S(=O)(=O)Cc1ccccc1F)N1CCc2ccccc2C1 | inactive: 4.95%
NC(=O)NCC(=O)N1CCc2cc(S(=O)(=O)NCc3cccs3)ccc2C1 | inactive: 7.6%
CN(Cc1ccc(OC(F)(F)F)cc1)Cc1cccc(C(F)(F)F)c1 | inactive: 60.6%
O=C(NC[C@H]1OC[C@@H](NCc2cccnc2)[C@@H]1O)N1CCOCC1 | inactive: 29.6% [at 57.5 µM]

Structure (SMILES) | activity % (negative = inhibition)
O=C1CC2(CCN(C(=O)c3ccc(Cl)cc3)CC2)Oc2cc(Cl)ccc21 | inactive: 1.59%
Cc1cccc(C(=O)N2CCOC(CCCc3ccccc3)C2)n1 (stereo unspecified) | inactive: 3.72%
O=C(Nc1ccc2c(c1)CN(CCc1ccc(F)cc1)C(=O)CO2)c1c(F)cccc1F | inactive: 2.48%
O=C(CCc1ccccc1)N1CCC(Cc2nncn2-c2ccccc2)C1 (stereo unspecified) | inactive: -2.79%
CN(CCNC(=O)C1CCCCC(=O)N1Cc1ccccc1)C1CCCCC1 (stereo unspecified) | inactive: -0.859%
CCc1cc(=O)n(CC(=O)NCCc2ccc(Cl)cc2)c(N2CCOCC2)n1 | inactive: 3.09%
CN1[C@H](C(=O)O)C[C@H](C(=O)NCC2(CO)CCCC2)[C@@H]1c1ccccc1F | inactive: 11.6%
COc1ccc(NC(=O)COc2ccc(NC(=O)C3CC3)cn2)cc1 | inactive: -3.27%
COc1cccc(CN2CCN(C(=O)c3cnc4ccccn4c3=O)CC2=O)c1 | inactive: 14.3%
N#Cc1ccc(C(=O)Nc2ccc(=O)n3c2[C@@H]2C[C@@H](CN(C(=O)c4ccc(F)cc4)C2)C3)cc1 | inactive: 14.5%
CC(C)N1CCN(C(=O)c2cc3cn(C4CC4)cc3s2)CC1 | inactive: 9.44%
CN1CCN(C[C@@H]2CN(C(=O)CCCc3cccs3)C[C@@H]2CO)CC1 | inactive: -0.194%
Cc1ccc(C)c(C(=O)N[C@@H]2CN(c3ccncn3)C[C@H]2CO)c1 | inactive: -0.121%
O=C(COc1ccccc1)N[C@H]1CO[C@H]2[C@@H]1OC[C@@H]2n1nnnc1Oc1ccc2c(c1)OCO2 | inactive: 3.43%
COc1ccc(C(=O)N[C@H]2CO[C@H]3[C@@H]2OC[C@@H]3Nc2nccc(-c3cccs3)n2)cc1 | inactive: 1.61%
O=C(NC[C@H]1OC[C@@H](NC2CCOCC2)[C@@H]1O)N1CCOCC1 | inactive: -2.2% [at 57.5 µM]
O=C([C@@H]1C[C@H](Oc2ccccc2)CN1C(=O)Nc1ccccc1F)N1CCOCC1 | inactive: 20.7%
Cn1nc(C2CCN(C(=O)NCc3ccccc3)CC2)c2c1CCOC2 | inactive: -1.25%
CCCCCC(=O)N1CC[C@@H](CC(=O)N(C)CC#N)[C@@H](CC)C1 | inactive: 0.472% [at 57.5 µM]
O=C(c1ccc(=O)[nH]n1)N1CCCC(c2ccn[nH]2)C1 (stereo unspecified) | inactive: 2.53%
CN(C)S(=O)(=O)N1CCOCCNC(=O)[C@@H]2CCC[C@@H]21 | inactive: 9.52%

Structure (SMILES) | activity % (negative = inhibition)
O=C(NCc1ccc(F)cc1)c1ccc(N2CC3CC(C2)[C@H]2CCCC(=O)N2C3)nc1 (stereo partly specified) | inactive: 13.2%
Cc1ccc(-c2ccc3nnc(CNC(=O)COc4cccc(C)c4)n3n2)cc1 | inactive: 3.39%
CCOc1ccc(CN2CCN(C/C=C/c3ccccc3OC)CC2CCO)cc1 (stereo unspecified) | inactive: 7.82%
CC[C@@]1(C(=O)O)C[C@H](C(=O)N(C)CCCO)[C@H](c2ccc(OC)cc2)N1C | inactive: -9.63%
COc1ccccc1C(=O)N1CCN(c2nccc(Nc3ccccc3Cl)n2)CC1 | inactive: 2.58%
C[C@@]1(O)CCN(Cc2cnc(NCC(=O)O)nc2)C[C@@H]1O | inactive: 3.51%
COc1nccc(N2CCC(CC(=O)NCCCN3CCCC3=O)CC2)n1 | inactive: 1.41%
O=C(Nc1cccc(-c2ccc(N3CCOCC3)nn2)c1)Nc1ccc(F)cc1F | inactive: 2.78%
CC(C)C(=O)N1CCN(c2nc3c(s2)CC(C(=O)NCc2ccco2)CC3)CC1 (stereo unspecified) | inactive: 4.14%
CC(C)CN1C2CCC1CN(C(=O)Nc1ccccc1F)C2 | inactive: 4.74%
O=C(c1ccc2ccccc2n1)N1CCC(n2cc(-c3nc(-c4ccccc4)no3)nn2)C1 (stereo unspecified) | inactive: -1.75%
COc1ccc(CN2C(=Nc3ccc(Cl)cc3)S[C@H]3[C@@H]2[C@@H](O)[C@H](O)C[C@@H]3C(N)=O)cc1 | inactive: 0.666%
O=C(c1ccn[nH]1)N1CCCCC1c1nc(CCOCC2CCCC2)no1 (stereo unspecified) | inactive: 17%
O=C1NCCC[C@@H]1NC(=O)[C@H]1CN(C(=O)NC2CCCCC2)CCN1S(=O)(=O)c1ccc(F)cc1 | inactive: 12.8%
COCCN1Cc2nc(-c3ccsc3)ccc2OCC1=O | inactive: 9.78% [at 57.5 µM]
CN1CCN(Cc2nnc(C(=O)N3CCC[C@@H]3c3ccc(Br)cc3)n2Cc2ccccc2)CC1 | inactive: 10.5%
O=C(O)CCC(=O)N1CCC2(CC1)C(=O)NCN2C(=O)Cc1c[nH]c2ccccc12 | inactive: -1.84%
N#Cc1cccnc1N1CCN(c2nccc(N3CCCC(O)C3)n2)CC1 (stereo unspecified) | inactive: 1.11%
O=c1cc(-c2cccnc2)nc(-c2cccc(CN3CCNCC3)c2)[nH]1 | inactive: 32.1%
O=C(NC1CCCC1)NC1CCN(c2nc3ncccc3o2)C1 (stereo unspecified) | inactive: 41.7% [at 57.5 µM]
O=C(NCc1cccc(F)c1)c1nc2c(o1)CCN(CC1CCCC1)CC2 | inactive: 1.01% [at 57.5 µM]

Arranged by number of heavy atoms (low to high): some entries from above
Structure (SMILES) | activity % (negative = inhibition)
CC(C)N[C@@H]1CO[C@H](CNC(=O)c2ccccc2)[C@H]1O | inactive: -8.28% [at 77.1 µM]
COc1ccc(-c2ccccc2C(=O)N2CCCC2)nn1 | inactive: 6.81% [at 57.5 µM]
CN(C)C[C@@H]1CN(S(C)(=O)=O)C[C@H]1NC(=O)c1ccc(Cl)s1 | inactive: 6.59%
O=C(NC1CCCC1)NC1CCN(c2nc3ncccc3o2)C1 (stereo unspecified) | inactive: 41.7% [at 57.5 µM]
Cc1ccc(C)c(C(=O)N[C@@H]2CN(c3ccncn3)C[C@H]2CO)c1 | inactive: -0.121%
CN(C(=O)CC(c1ccccc1)c1ccc(Cl)cc1)C1CCOCC1 (stereo unspecified) | inactive: -0.087%
O=C1CC2(CCN(C(=O)c3ccc(Cl)cc3)CC2)Oc2cc(Cl)ccc21 | inactive: 1.59%
CN1[C@H](C(=O)O)C[C@H](C(=O)NCC2(CO)CCCC2)[C@@H]1c1ccccc1F | inactive: 11.6%
CN(CCNC(=O)C1CCCCC(=O)N1Cc1ccccc1)C1CCCCC1 (stereo unspecified) | inactive: -0.859%
Cc1ccc(-c2ccc3nnc(CNC(=O)COc4cccc(C)c4)n3n2)cc1 | inactive: 3.39%
O=C(Nc1cccc(-c2ccc(N3CCOCC3)nn2)c1)Nc1ccc(F)cc1F | inactive: 2.78%
COc1ccc(CN2C(=Nc3ccc(Cl)cc3)S[C@H]3[C@@H]2[C@@H](O)[C@H](O)C[C@@H]3C(N)=O)cc1 | inactive: 0.666%
O=C(Nc1ccc2c(c1)CN(CCc1ccc(F)cc1)C(=O)CO2)c1c(F)cccc1F | inactive: 2.48%
CCCNC(=O)C1C(c2ccc(NC(=O)c3ccco3)cc2)OC(=O)N1Cc1ccccc1 (stereo unspecified) | inactive: 2.91%
O=C(COc1ccccc1)N[C@H]1CO[C@H]2[C@@H]1OC[C@@H]2n1nnnc1Oc1ccc2c(c1)OCO2 | inactive: 3.43%
O=C1NCCC[C@@H]1NC(=O)[C@H]1CN(C(=O)NC2CCCCC2)CCN1S(=O)(=O)c1ccc(F)cc1 | inactive: 12.8%
O=C(O)C[C@@H]1CCN(C(=O)Nc2ccc(C(F)(F)F)cc2)C[C@@H]1CCN1C[C@@H]2C[C@H](C1)c1cccc(=O)n1C2 | inactive: 4.52%
NC(=O)[C@@H](Cc1c[nH]c2ccccc12)NC(=O)[C@@H]1C[C@@H](NS(=O)(=O)c2cccs2)CCN1C(=O)[C@@H](O)[C@H](O)C(=O)O | inactive: 1.91%

An excerpt from above in order of molecular weight, high to low:
Structure (SMILES) | activity % (negative = inhibition)
CCOc1ccc(CN2CCN(C/C=C/c3ccccc3OC)CC2CCO)cc1 (stereo unspecified) | inactive: 7.82%
Cc1ccc(-c2ccc3nnc(CNC(=O)COc4cccc(C)c4)n3n2)cc1 | inactive: 3.39%
COc1nccc(N2CCC(CC(=O)NCCCN3CCCC3=O)CC2)n1 | inactive: 1.41%

Further entries.

Structure (SMILES) | activity % (negative = inhibition)
Cc1ccc(S(=O)(=O)N2CCCC(CNC(=O)c3cccs3)C2)cc1 (stereo unspecified) | inactive: 2.18%
O=C1CN(Cc2ccc(-c3ccsc3)cc2)CCN1c1cc(Cl)ncn1 | inactive: 9.95%
O=C1CC(c2nc(-c3ccc4nc[nH]c4c3)no2)CN1Cc1cccnc1 (stereo unspecified) | inactive: 4.49%
CCOC(=O)N1CCN(C(=O)c2sc(C(C)C)nc2C)CC1 | inactive: 10.5%
Cc1cccc(NC(=O)N2CCCC(Cc3noc(-c4cnccn4)n3)C2)c1 (stereo unspecified) | inactive: -0.269%
CC(C)N1C(=O)C2(CCCC2)C1C(=O)Nc1ccncc1 (stereo unspecified) | inactive: 5.87%
Cc1n[nH]c(C)c1CNc1cc(C2CC(O)C2)ncn1 (stereo unspecified) | inactive: -2.08%
CN(Cc1ccc(-n2cccn2)cc1)CC1CCN(CCc2ccc(F)cc2)CC1 | inactive: -0.832%
CC1(C(=O)Nc2ccccc2F)COCc2cnc(Nc3ccccc3)nc21 (stereo unspecified) | inactive: 9.93% [at 57.5 µM]
O=[S+]([O-])(c1cccc(C(F)(F)F)c1)N1CC(CNc2cccnc2)C2(CN(c3ccccc3)C2)C1 (stereo unspecified) | inactive: 13.3%
c1ccc(CN2CCC[C@H]2c2nc(-c3ccnc(N4CCOCC4)c3)no2)nc1 | inactive: -8.59% [at 57.5 µM]
COc1ccc(CC(=O)N2C[C@@H]3C[C@H](C2)c2c(-c4ccc(NC(C)=O)cc4)ccc(=O)n2C3)cc1 | inactive: 6.04%
COc1ccc(CNC(=O)[C@H]2O[C@H](CCN(C)CCc3ccccc3)CC[C@@H]2O)cc1 | inactive: 0.758% [at 57.5 µM]
Cc1noc(C)c1S(=O)(=O)N1CC(n2cnnc2C2CCCO2)C1 (stereo unspecified) | inactive: -1.51%
CCN(C(=O)CCC(=O)N1CCC(C)(c2noc(C)n2)CC1)c1ccccc1 | inactive: -0.293%
Cc1cccc(-c2ocnc2C(=O)N2CC[C@H](CO)[C@H](NC(=O)C3CC3)C2)c1 | inactive: 8.07%
Cc1ccc(-c2cn3c(n2)N(S(C)(=O)=O)CCC3)cc1 | inactive: 1.8%
COc1ccc(Cc2nc3nccc(-c4cc5ccccc5o4)n3n2)cc1 | inactive: 0.203%
